Legend:
Type in all cases: cell-based
Azoarcus sp. DD4 [1] = test: Cometabolism of CAHs by DD4 resting cells after being fed with propane; details: 0.13 mg protein mL^−1, 24 h, headspace GC
Mycobacterium sp. DT1 [2] = test: Cometabolism of other CAHs by DT1 resting cells after being fed with propane; details: 0.22 mg protein mL^−1, headspace GC
Azoarcus sp. DD4 [3] = test: Biodegradation of concurrent dioxane and 1,1-DCE by DD4 in microcosms; details: for degradation with 1-propanol compared to the treatment fed with propane: concurrent 1,1-DCE and dioxane
Procedure: Biodegradation of concurrent dioxane and 1,1-DCE by Azoarcus sp. DD4. To evaluate the performance of DD4 in removing dioxane and 1,1-DCE when both compounds are concurrently present, microcosms were prepared with DD4 inoculum in NMS medium and dosed with dioxane and 1,1-DCE. Two primary substrates were used, including propane and 1-propanol.

Azoarcus sp. DD4 [4] = test: Co-metabolism of dioxane by DD4 using propane as the primary substrate; details: NMS, 30° C.
Mycobacterium sp. DT1 [5] = test: Cometabolism of dioxane by DT1 using propane as the primary substrate

CC(Cl)(Cl)Cl [1,1,1-TCA, 1,1,1-trichloroethane]
cometabolism by DD4 resting cells after growth with propane (Azoarcus sp. DD4 [1]): no degradation | cometabolism by DT1 resting cells after growth with propane (Mycobacterium sp. DT1 [2]): no degradation

CC(Cl)Cl [1,1-DCA, 1,1-dichloroethane]
cometabolism by DT1 resting cells after growth with propane (Mycobacterium sp. DT1 [2]): able to cometabolize

C=C(Cl)Cl [1,1-DCE, 1,1-dichloroethylene]
cometabolism by DD4 resting cells after growth with propane (Azoarcus sp. DD4 [1]): able to cometabolize | degradation with 1-propanol compared to the treatment fed with propane (Azoarcus sp. DD4 [3]): approximately three times faster | day on which fully degraded (Azoarcus sp. DD4 [3]; propane as primary substrate, dioxane concurrently present): 23 days | cometabolism by DT1 resting cells after growth with propane (Mycobacterium sp. DT1 [2]): no degradation

ClCCCl [1,2-DCA, 1,2-dichloroethane]
cometabolism by DD4 resting cells after growth with propane (Azoarcus sp. DD4 [1]): able to cometabolize | cometabolism by DT1 resting cells after growth with propane (Mycobacterium sp. DT1 [2]): able to cometabolize

ClC=C(Cl)Cl [TCE, trichloroethene]
cometabolism by DD4 resting cells after growth with propane (Azoarcus sp. DD4 [1]): no degradation

C=CCl [VC, vinyl chloride]
cometabolism by DT1 resting cells after growth with propane (Mycobacterium sp. DT1 [2]): able to cometabolize

Cl/C=C\Cl [cis-1,2-DCE, cis-1,2-dichloroethene]
cometabolism by DD4 resting cells after growth with propane (Azoarcus sp. DD4 [1]): able to cometabolize | cometabolism by DT1 resting cells after growth with propane (Mycobacterium sp. DT1 [2]): able to cometabolize

C1COCCO1 [dioxane, 1,4-dioxane]
lag time before dioxane degradation (Azoarcus sp. DD4 [4]; DD4 grown on 1.5% propane): approximately 60 h | dioxane concentration at the incubation of 96 h (Azoarcus sp. DD4 [4]; initial 18.9±1.8 mg/L dioxane, 1.5% propane): 0.6 ± 0.1 mg/L | degradation with 1-propanol compared to the treatment fed with propane (Azoarcus sp. DD4 [3]): approximately three times faster | lag time of dioxane degradation by DT1 (Mycobacterium sp. DT1 [5]; 3.3% propane, BSM with 0.1% Tween-80, 30° C.): without a lag time | dioxane concentration at the incubation of 96 h (Mycobacterium sp. DT1 [5]; initial 20.1±1.4 mg/L, below the MDL of GC-FID): < 0.1 mg/L

Cl/C=C/Cl [trans-1,2-DCE]
cometabolism by DT1 resting cells after growth with propane (Mycobacterium sp. DT1 [2]): able to cometabolize
